Assay results from the supplement of paper PMC6411743.
± gives the standard deviation of the averaged measurements. This is a selection; strong and weak results do not stand in their true shares.

Molecular target: UniProt P07900 and related entries
Experiment: NP40-soluble protein abundance relative to vehicle (solubility fold change) (ratio); higher = more soluble protein in presence of ATP
How it was run: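 Values are fold changes against the detergent-processed vehicle, based on vsn-normalised intensities. Jurkat crude lysate was treated at eight concentrations from 0.1 to 10 mM (10 min at room temperature, then 3 min at 37 °C), solubilised with 0.8% NP40 and benzonase, ultracentrifuged and analysed by TMT-labelled LC-MS/MS over three independent experiments.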

With `Nc1ncnc2c1ncn2[C@@H]1O[C@H](COP(=O)(O)OP(=O)(O)OP(=O)(O)O)[C@@H](O)[C@H]1O` [adenosine triphosphate] the NP40-soluble protein abundance (concentration: 1mM) was 1 ± 0.018, the NP40-soluble protein abundance (concentration: 2mM) was 0.994 ± 0.011 and the NP40-soluble protein abundance (concentration: 4mM) was 0.965 ± 0.024. For the same compound, the NP40-soluble protein abundance (concentration: 6mM) was 0.988 ± 0.027, the NP40-soluble protein abundance (concentration: 8mM) was 0.952 ± 0.017 and the NP40-soluble protein abundance (concentration: 10mM) was 0.952 ± 0.051.
